Results deposited as PubChem BioAssay AID1224830 (NIAID, 2016).
Screen: 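Regulators of TLR4 signalling towards TNF-alpha in macrophage-like cells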 (primary screen). Cells: human THP-1 monocytic leukaemia cells, TNF dual-luciferase reporter clone, PMA-differentiated to macrophage-like cells. Reagents: siRNA pool against human genes, 50 nM. Timing: LPS for 4 h, given about 3 days after siRNA transfection. Challenge: bacterial LPS (TLR4 ligand), 10 ng/ml. Read-out: 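Ratio of firefly to renilla light, scaled to the plate median and expressed as a robust z-score per replicate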. Reading the numbers: TNF reporter robust z-score: higher = stronger TNF reporter response to LPS. Rule for the call: 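a well is active when its z-score exceeds 2.8 or falls below -1.5; control wells carry no call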.
The whole screen tested about 18,000 reagents; this is an unselected part. About 2,900 of them (16%) count as active. 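Calls are made per well; low scores hint the gene aids the LPS response, high scores that it dampens it.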 A number with no mark means an inactive call. Repeated entries: four replicate wells of each siRNA pool.

target gene | TNF reporter robust z-score
ADRA1B (adrenoceptor alpha 1B) | 2.64
ADRA1B (adrenoceptor alpha 1B) | 1.89
ADRA1B (adrenoceptor alpha 1B) | 1.68
ADRA1B (adrenoceptor alpha 1B) | 3.53 (active)
BMP4 (bone morphogenetic protein 4) | -0.23
BMP4 (bone morphogenetic protein 4) | -0.47
BMP4 (bone morphogenetic protein 4) | 0.2
BMP4 (bone morphogenetic protein 4) | 0.07
PGAM4 (phosphoglycerate mutase family member 4) | 0.09
PGAM4 (phosphoglycerate mutase family member 4) | -0.71
PGAM4 (phosphoglycerate mutase family member 4) | 0.24
PGAM4 (phosphoglycerate mutase family member 4) | 0.03
SLFNL1 (schlafen like 1) | -0.87
SLFNL1 (schlafen like 1) | -0.02
SLFNL1 (schlafen like 1) | 0.49
SLFNL1 (schlafen like 1) | -0.95
FRZB (frizzled related protein) | -1.13
FRZB (frizzled related protein) | 0.5
FRZB (frizzled related protein) | -0.24
FRZB (frizzled related protein) | -0.18
BTN3A3 (butyrophilin subfamily 3 member A3) | 1.34
BTN3A3 (butyrophilin subfamily 3 member A3) | 1.36
BTN3A3 (butyrophilin subfamily 3 member A3) | 0.06
BTN3A3 (butyrophilin subfamily 3 member A3) | 1.82
USH1C (USH1 protein network component harmonin) | 0.38
USH1C (USH1 protein network component harmonin) | 0.96
USH1C (USH1 protein network component harmonin) | 1.11
USH1C (USH1 protein network component harmonin) | 0.82
OR51G1 (olfactory receptor family 51 subfamily G member 1) | 0.71
OR51G1 (olfactory receptor family 51 subfamily G member 1) | 1
OR51G1 (olfactory receptor family 51 subfamily G member 1) | 1.09
OR51G1 (olfactory receptor family 51 subfamily G member 1) | 2.42
GPALPP1 (GPALPP motifs containing 1) | 1.5
GPALPP1 (GPALPP motifs containing 1) | 1.44
GPALPP1 (GPALPP motifs containing 1) | 1.17
GPALPP1 (GPALPP motifs containing 1) | 0.68
LEMD1 (LEM domain containing 1) | 0.39
LEMD1 (LEM domain containing 1) | 1.81
LEMD1 (LEM domain containing 1) | 1.5
LEMD1 (LEM domain containing 1) | -0.03
NDUFA1 (NADH:ubiquinone oxidoreductase subunit A1) | -0.75
NDUFA1 (NADH:ubiquinone oxidoreductase subunit A1) | -0.88
NDUFA1 (NADH:ubiquinone oxidoreductase subunit A1) | -1.56 (active)
NDUFA1 (NADH:ubiquinone oxidoreductase subunit A1) | -1.12
FAAH (fatty acid amide hydrolase) | 1.78
FAAH (fatty acid amide hydrolase) | 2.54
FAAH (fatty acid amide hydrolase) | 1.59
FAAH (fatty acid amide hydrolase) | 2.99 (active)
RING1 (ring finger protein 1) | 3.4 (active)
RING1 (ring finger protein 1) | 1.26
RING1 (ring finger protein 1) | 0.68
RING1 (ring finger protein 1) | 2.1
CCNA2 (cyclin A2) | -0.89
CCNA2 (cyclin A2) | -0.24
CCNA2 (cyclin A2) | 0.5
CCNA2 (cyclin A2) | 0.44
PPM1B (protein phosphatase, Mg2+/Mn2+ dependent 1B) | -0.29
PPM1B (protein phosphatase, Mg2+/Mn2+ dependent 1B) | 0.14
PPM1B (protein phosphatase, Mg2+/Mn2+ dependent 1B) | -0.64
PPM1B (protein phosphatase, Mg2+/Mn2+ dependent 1B) | 0.13
UBE2D1 (ubiquitin conjugating enzyme E2 D1) | 0.36
UBE2D1 (ubiquitin conjugating enzyme E2 D1) | 1.22
UBE2D1 (ubiquitin conjugating enzyme E2 D1) | 0.93
UBE2D1 (ubiquitin conjugating enzyme E2 D1) | 1.18
NACA (nascent polypeptide associated complex subunit alpha) | -0.34
NACA (nascent polypeptide associated complex subunit alpha) | 0.2
NACA (nascent polypeptide associated complex subunit alpha) | 0.15
NACA (nascent polypeptide associated complex subunit alpha) | -0.24
ZNF483 (zinc finger protein 483) | 2.08
ZNF483 (zinc finger protein 483) | 1.25
ZNF483 (zinc finger protein 483) | 0.76
ZNF483 (zinc finger protein 483) | 3.81 (active)
TCF7 (transcription factor 7) | 0.02
TCF7 (transcription factor 7) | 0.06
TCF7 (transcription factor 7) | -0.25
TCF7 (transcription factor 7) | 0.18
RPS6KB2 (ribosomal protein S6 kinase B2) | 0.9
RPS6KB2 (ribosomal protein S6 kinase B2) | -0.07
RPS6KB2 (ribosomal protein S6 kinase B2) | 0.21
RPS6KB2 (ribosomal protein S6 kinase B2) | 0.89
DRC2 (dynein regulatory complex subunit 2) | 0.9
DRC2 (dynein regulatory complex subunit 2) | 1.96
DRC2 (dynein regulatory complex subunit 2) | 0.3
DRC2 (dynein regulatory complex subunit 2) | 0.68
SHROOM1 (shroom family member 1) | -1.25
SHROOM1 (shroom family member 1) | -1.05
SHROOM1 (shroom family member 1) | -1.38
SHROOM1 (shroom family member 1) | -0.92
PLEKHA3 (pleckstrin homology domain containing A3) | -0.91
PLEKHA3 (pleckstrin homology domain containing A3) | -0.18
PLEKHA3 (pleckstrin homology domain containing A3) | -0.59
PLEKHA3 (pleckstrin homology domain containing A3) | -1.08
ALG2 (ALG2 alpha-1,3/1,6-mannosyltransferase) | 0.16
ALG2 (ALG2 alpha-1,3/1,6-mannosyltransferase) | -1.3
ALG2 (ALG2 alpha-1,3/1,6-mannosyltransferase) | -1.34
ALG2 (ALG2 alpha-1,3/1,6-mannosyltransferase) | -0.45
UBE3B (ubiquitin protein ligase E3B) | 0.2
UBE3B (ubiquitin protein ligase E3B) | -0.57
UBE3B (ubiquitin protein ligase E3B) | -0.89
UBE3B (ubiquitin protein ligase E3B) | 0.13
CYP39A1 (cytochrome P450 family 39 subfamily A member 1) | -0.35
CYP39A1 (cytochrome P450 family 39 subfamily A member 1) | 0.26
CYP39A1 (cytochrome P450 family 39 subfamily A member 1) | 0.55
CYP39A1 (cytochrome P450 family 39 subfamily A member 1) | -0.53
SLC7A14 | -1.28
SLC7A14 | -1.33
SLC7A14 | -1.05
RPA1 (replication protein A1) | 1.48
RPA1 (replication protein A1) | 2.33
RPA1 (replication protein A1) | 2.04
RPA1 (replication protein A1) | 0.86
FGFR1 (fibroblast growth factor receptor 1) | -0.53
FGFR1 (fibroblast growth factor receptor 1) | -0.28
FGFR1 (fibroblast growth factor receptor 1) | -0.97
FGFR1 (fibroblast growth factor receptor 1) | -0.35
CDC20B (cell division cycle 20B) | -2.04 (active)
CDC20B (cell division cycle 20B) | -1.19
CDC20B (cell division cycle 20B) | -1.02
CDC20B (cell division cycle 20B) | -1.22
KYNU (kynureninase) | 0.58
KYNU (kynureninase) | -0.8
KYNU (kynureninase) | 0.17
KYNU (kynureninase) | 1.03
TMEM144 (transmembrane protein 144) | 0.61
TMEM144 (transmembrane protein 144) | -0.1
TMEM144 (transmembrane protein 144) | -0.09
TMEM144 (transmembrane protein 144) | 0.02
IBTK (inhibitor of Bruton tyrosine kinase) | 0
IBTK (inhibitor of Bruton tyrosine kinase) | -0.43
IBTK (inhibitor of Bruton tyrosine kinase) | -0.12
IBTK (inhibitor of Bruton tyrosine kinase) | 0.26
RPL31 (ribosomal protein L31) | -1.36
RPL31 (ribosomal protein L31) | -0.53
RPL31 (ribosomal protein L31) | -1.53 (active)
RPL31 (ribosomal protein L31) | -1.28
ILF3 (interleukin enhancer binding factor 3) | 0.64
ILF3 (interleukin enhancer binding factor 3) | 2.96 (active)
ILF3 (interleukin enhancer binding factor 3) | 1.86
ILF3 (interleukin enhancer binding factor 3) | 0.81
GATA3 (GATA binding protein 3) | -1.07
GATA3 (GATA binding protein 3) | -1.09
GATA3 (GATA binding protein 3) | -2.08 (active)
GATA3 (GATA binding protein 3) | -1.77 (active)

No new results follow: an excerpt of the list.
target gene | TNF reporter robust z-score
PPM1B (protein phosphatase, Mg2+/Mn2+ dependent 1B) | -0.64
PPM1B (protein phosphatase, Mg2+/Mn2+ dependent 1B) | 0.13
UBE2D1 (ubiquitin conjugating enzyme E2 D1) | 0.36
UBE2D1 (ubiquitin conjugating enzyme E2 D1) | 1.22
UBE2D1 (ubiquitin conjugating enzyme E2 D1) | 0.93
UBE2D1 (ubiquitin conjugating enzyme E2 D1) | 1.18
NACA (nascent polypeptide associated complex subunit alpha) | -0.34
NACA (nascent polypeptide associated complex subunit alpha) | 0.2
NACA (nascent polypeptide associated complex subunit alpha) | 0.15
